Source: patent US20110038885A1 (priority 2007, published 2011)
Bridge positions count the residues as written; N and C are the ends. Square brackets hold non-standard residues; d marks the D form. GABA = NCCCC(=O)O

Test: peptide synthesis
Conditions: whole synthesis

| Substance | purity (crude or final not stated) [%] |
| --- | --- |
| H-[dC][dQ][dI][dW][dK][dQ][dK][dP][dD][dL][dC][GABA]-OH (disulfide 1-11; SMILES CC[C@@H](C)[C@H]1NC(=O)[C@@H](CCC(N)=O)NC(=O)[C@H](N)CSSC[C@H](C(=O)NCCCC(=O)O)NC(=O)[C@@H](CC(C)C)NC(=O)[C@@H](CC(=O)O)NC(=O)[C@H]2CCCN2C(=O)[C@@H](CCCCN)NC(=O)[C@@H](CCC(N)=O)NC(=O)[C@@H](CCCCN)NC(=O)[C@@H](Cc2c[nH]c3ccccc23)NC1=O) | 98 |
| [GABA]KWIQD-NH2 (lactam N-6; SMILES CC[C@H](C)[C@@H]1NC(=O)[C@H](Cc2c[nH]c3ccccc23)NC(=O)[C@H](CCCCN)NC(=O)CCCNC(=O)C[C@@H](C(N)=O)NC(=O)[C@H](CCC(N)=O)NC1=O) | 96 |
| [GABA]KWIQE-NH2 (lactam N-6; SMILES CC[C@H](C)[C@@H]1NC(=O)[C@H](Cc2c[nH]c3ccccc23)NC(=O)[C@H](CCCCN)NC(=O)CCCNC(=O)CC[C@@H](C(N)=O)NC(=O)[C@H](CCC(N)=O)NC1=O) | 84 |
| [GABA][dQ][dI][dW][dK][dD]-NH2 (lactam N-6; SMILES CC[C@@H](C)[C@H]1NC(=O)[C@@H](CCC(N)=O)NC(=O)CCCNC(=O)C[C@H](C(N)=O)NC(=O)[C@@H](CCCCN)NC(=O)[C@@H](Cc2c[nH]c3ccccc23)NC1=O) | 98 |
